Measurements reported in PubChem BioAssay AID1259405 (NCATS, 2018).
Purpose: 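Mouse-designed siRNAs used to find CHO productivity engineering targets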 (primary screen). Cells: Chinese hamster CHO-K1 ovary cells with stable secreted eGFP expression. Reagents: single siRNA against mouse genes, 0.8 pmol siRNA per well (2 µl of 400 nM stock). Duration: 3 days. Measurement: 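Percent of the per-plate non-targeting control median for intracellular GFP per well by laser scanning cytometry and for cell viability by ATP luminescence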. Scale: GFP, % of control: higher = more GFP per well, higher productivity; viability (ATP), % of control: higher = more viable cells (more ATP). Call rule: 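a knock-down is called active if GFP reaches 120% or more of non-targeting control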.
Here is a random part of about 50,000 reagents tested. About 4,000 of them (8%) count as active. 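Mouse siRNA library applied to hamster cells; one well for each siRNA.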 A number with no mark means an inactive call. The numbers tell different reagents against one gene apart. Reagent sequences are not shown.

target	reagent no.	GFP, % of control	viability (ATP), % of control
Slc39a11 (GeneID 69806)	1	99.5	125
Slc39a11 (GeneID 69806)	2	86.4	78.1
Slc39a11 (GeneID 69806)	3	76.1	81.3
Il15 (GeneID 16168)	1	73.3	80.5
Il15 (GeneID 16168)	2	68.2	56.4
Chrdl2 (GeneID 69121)	1	82.9	52.9
Chrdl2 (GeneID 69121)	2	57.3	44.2
Chrdl2 (GeneID 69121)	3	62.4	60.1
Hnf4g (GeneID 30942)	1	51.7	53.5
Hnf4g (GeneID 30942)	2	59.7	46.7
Scrn2 (GeneID 217140)	1	111	106
Scrn2 (GeneID 217140)	2	39.8	59.2
Scrn2 (GeneID 217140)	3	70.8	83.7
Lig4 (GeneID 319583)	1	68.5	80.7
Lig4 (GeneID 319583)	2	67	64.6
Lig4 (GeneID 319583)	3	65.9	94.5
Eef1d (GeneID 66656)	1	57.5	50.1
Eef1d (GeneID 66656)	2	99.1	64.3
Eef1d (GeneID 66656)	3	163 (active)	106
Shprh (GeneID 268281)	1	83.8	92.6
Shprh (GeneID 268281)	2	54.8	67.6
Shprh (GeneID 268281)	3	71.8	92.2
Or5o1 (GeneID 236785)	1	85	76.6
Or5o1 (GeneID 236785)	2	94.5	75
Or5o1 (GeneID 236785)	3	107	107
Angpt1 (GeneID 11600)	1	49.6	59.7
Angpt1 (GeneID 11600)	2	50.3	52
Or8b4 (GeneID 258794)	1	73.2	33.3
Or8b4 (GeneID 258794)	2	39	70.6
Or8b4 (GeneID 258794)	3	103	115
Fst (GeneID 14313)	1	43.3	67.1
Fst (GeneID 14313)	2	80.2	63.3
Fst (GeneID 14313)	3	91.1	54.1
Fam221a (GeneID 231946)	1	60.3	82.3
Fam221a (GeneID 231946)	2	87.7	78.9
Fam221a (GeneID 231946)	3	79.3	86.2

Active calls, among the entries above:
target	reagent no.	GFP, % of control	viability (ATP), % of control
Eef1d (GeneID 66656)	3	163 (active)	106
